Source: patent publication US20250186600A1, “EXCIPIENT COMPOUNDS FOR PROTEIN FORMULATIONS” (Comera Life Sciences, Inc., priority 2020, published 2025)

System: proteins described in Table 50
Assay: DLS diffusion interaction parameter kD (Example 49)
Format: physicochemical
Settings: excipient stock concentration 200 mM, mixed 1:1 with protein solution, 20 mM His HCl pH 6, 25° C.
Experimental: The resulting solution was titrated to pH 6 by dropwise addition of 1 M hydrochloric acid. After pH adjustment, the buffer was diluted to a final volume of 1 L in a volumetric flask with Type 1 ultrapure water. All excipients used in this Example, listed in Table 50 below, were of the highest purity, and were obtained from Sigma Aldrich (St. Louis, MO) or Cayman Chemical (Ann Arbor, MI).
A series of six test protein solutions were prepared using the proteins described in Table 50, ranging in protein concentration from about 4 mg/mL to about 20 mg/mL, all in 20 mM His HCl buffer at pH 6. […] A second centrifuge step was completed to remove air bubbles. The diffusion interaction parameter (kD) of these protein-excipient formulations was measured by dynamic light scattering (DLS) in dilute solution as a way of probing the impact of excipients on protein-protein interactions (PPI). […] A more negative kD indicated a stronger net attractive PPI and a more positive kD indicated a stronger net repulsive PPI.

**Q.** Which results are given for `NCCC[C@H](N)C(=O)O` [L-ornithine]?
**A.** Omalizumab kD (omalizumab): -16.5 mL/g; Ustekinumab kD (ustekinumab): -4.3 mL/g
